{"sequences": {"note": "Protein sequences, listed by entry. Tags and fused reporters are not part of them. Lines headed by an entry give the natural chain unless they say otherwise; changes in a name come on top.", "UniProt Q04929": "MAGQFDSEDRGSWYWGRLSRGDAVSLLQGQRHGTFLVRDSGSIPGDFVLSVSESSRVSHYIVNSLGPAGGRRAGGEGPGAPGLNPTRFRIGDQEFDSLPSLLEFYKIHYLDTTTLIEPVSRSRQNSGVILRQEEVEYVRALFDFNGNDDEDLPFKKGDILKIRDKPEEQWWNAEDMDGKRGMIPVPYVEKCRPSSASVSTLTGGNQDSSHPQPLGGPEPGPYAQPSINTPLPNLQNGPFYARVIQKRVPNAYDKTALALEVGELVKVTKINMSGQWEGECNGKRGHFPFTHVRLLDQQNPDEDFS"}, "source": "patent US5888763A", "about": "“Peptides specific for the first Crk-SH3 domain” (The Rockefeller University, priority 1994, dated 1999)", "key": {"[1]": {"target": "T1, c-Crk (Gallus gallus, UniProt Q04929)", "T1 construct": "expressed in transfected cells; host or cells: chicken embryo fibroblasts infected with c-Crk virus (c-Crk/CEF)", "assay": "Peptide competition assay: inhibition of gst-1-12 binding to c-Crk in cell lysates", "set-up": "species or system chicken", "details": "500 μM peptide, 1 μM gst-1-12, lysates of c-Crk overexpressing CEFs; listed as Lys-10Ala"}, "[2]": {"system": "c-CrkSH3(1)", "assay": "Tryptophan fluorescence titration of peptides with gst-c-CrkSH3(1)", "format": "binding, murine", "details": "CrkSH3(1) vs Grb2", "source_text": "Fluorescence Measurements. The fluorescence measurements were based predominantly on the interactions of the peptides with the aromatic residues, predominantly Trp (Yu et al., 1994, Cell 76:933) in the CrkSH3 domain.\nMeasurements were made with a Perkin-Elmer 760-40 fluorescence spectrophotometer at a excitation wavelength of 290 nm (slitwidth 2 nm) and an emission wavelength of 345 nm (slitwidth 17 nm). A mini-magnetic stirrer, CUV-O-STIR model 333 (HELLMA, Long Island, N.Y.) was used to mix the solution in a 1 cm square quartz fluorescence cell. A circulating water bath was used to maintain the sample temperature at 18° C. To obtain the titration curves for calculations of the binding constants, peptides from a stock solution of 5 mg/ml in TBS, 0.05% Tween-20 were added in small increments to a 1 ml volume of 0.5 μM SH3 domain in PBS, 1 mM Dithiothreitol (DTT).\nCalculation of the binding constant. Since the concentration of the SH3-domain containing protein was low, the experimental data were fitted to the following equation:\nF=Fmax *[peptide]/(Kd +[peptide]) (1)\nNon-linear regression curve fitting using SigmaPlot (Jandel Scientific, San Rafael, Calif.) was carried out to fit the experimental data to equation (1) with Fmax and Kd as fitted parameters."}}, "note": "“Also recorded” adds a separate entry of the source. Part of at least one peptide drawing is inferred or uncertain, most often the ends. Where a SMILES comes first, the peptide text is derived from it.", "data": [{"smiles": "CC(C)C[C@H](NC(=O)[C@H](C)NC(=O)[C@@H]1CCCN1C(=O)[C@@H]1CCCN1C(=O)[C@@H]1CCCN1)C(=O)N1CCC[C@H]1C(=O)N1CCC[C@H]1C(=O)N[C@@H](C)C(=O)N[C@@H](CCCCN)C(=O)N[C@@H](CCCNC(=N)N)C(=O)O", "note": "(H-PPPALPPAKR-OH)", "values": [{"measurement": "inhibition of gst-1-12 binding to c-Crk (competition)", "setting": "[1]", "value": "significantly reduced the binding; also recorded: considerable loss of binding affinity"}]}, {"smiles": "CC(C)C[C@H](NC(=O)[C@H](C)NC(=O)[C@@H]1CCCN1C(=O)[C@@H]1CCCN1C(=O)[C@@H]1CCCN1)C(=O)N1CCC[C@H]1C(=O)N1CCC[C@H]1C(=O)N[C@@H](CCCCN)C(=O)N[C@@H](CCCCN)C(=O)N[C@@H](CCCNC(=N)N)C(=O)O", "note": "[CB-1 peptide]", "values": [{"measurement": "binding preference for CrkSH3(1) domain over Grb2", "setting": "[2]", "value": 75, "unit": "fold"}]}]}
